The results in this text go back to PMC12040169 (PLOS Biology, 2025).

This is one part of the list.

For this experiment, the system named is T1, CTL2-GFP (C. trachomatis L2/434/Bu, GFP-expressing).
T1 construct: L2/434/Bu, GFP-expressing
The arrangement: species or system HeLa; Intracellular C. trachomatis growth in HeLa cells, bulk GFP fluorescence relative to DMSO. As to conditions: bulk GFP, single well; 28.5 h, 10 µM; inhibitor.
As for `C=CCn1c(Cc2csc(NC(=O)c3ccc(C)c(F)c3)n2)n[nH]c1=S` [CBK295307], the “% of control remaining” value was 170.36%.
Take `S=c1[nH]nc(CSc2nc3ccccc3[nH]2)n1-c1ccccc1` [CBK267133]: the “% of control remaining” value worked out at 146.126%.
As for `CN(C)CCCNC(=O)CCc1ccccc1` [CBK263806], the “% of control remaining” value is 133.663%.
Consider `CC(C)(Oc1cccc2ccccc12)C(=O)O` [CBK012409], for which the “% of control remaining” value is 125.328%.
Consider `O=C1NC2=NOCCC2=CN1[C@H]1C[C@@H](O)[C@@H](CO)O1` [CBK201192], for which the “% of control remaining” value is 148.218%.
Turning to `COc1ccc2c(c1)C(NC(=O)C1CCCN(C)C1)CC(C)(C)O2` (stereo not drawn) [CBK307631], the “% of control remaining” value is 100.734%.
In the case of `CC(C)CNc1nc(-c2cc(C(F)(F)F)cc(C(F)(F)F)c2)cnc1N` [CBK063708], the “% of control remaining” value is 128.114%.
`CC1CCCC(C)N1C(=O)C1CCCCC1C(=O)O` (stereo not drawn) [CBK026624]: the “% of control remaining” value amounted to 118.216%.
The value for `COc1ccc(-c2cc(CC3(NC(C)=O)COC3)no2)cc1` [CBK289428] was 116.118%.
In the case of `CC(C)Cn1cncc1CN1C(=O)CC2(CCCC2)CC1=O` [CBK306600], the “% of control remaining” value was 119.417%.
For the compound `Cc1cc(C(=O)NCCCC2CCOC2)c2cccc(Cl)c2n1` (stereo not drawn) [CBK282550], the “% of control remaining” value stood at 81.2142%.
With `CC(C)(C)OC(=O)N1CCC(CNS(=O)(=O)c2cc(Cl)sc2Cl)CC1` [CBK086018], the “% of control remaining” value is 122.457%.
`CCC(C(=O)NCCCN1CCOCC1)c1ccccc1` (stereo not drawn) [CBK265103]: the “% of control remaining” value came to 154.045%.
As for `CCCC(=O)Nc1nc(-c2ccc(C)cc2)c(C)s1` [CBK287763], the “% of control remaining” value was 92.5308%.
`Cc1cc2c(cc3c(=O)n(CC(=O)NC4CC4)nc(C)n32)s1` [CBK284067]: the “% of control remaining” value is reported as 151.963%.
On to `O=C(COC(=O)C1CCN(S(=O)(=O)c2cccc3cccnc23)CC1)c1ccc([N+](=O)[O-])cc1` [CBK264412], for which the “% of control remaining” value stood at 119.662%.
For `O=C(O)c1cc(S(=O)(=O)Nc2ccc3nc(N4CCCC4)sc3c2)ccc1Br` [CBK296710], the “% of control remaining” value was found to be 101.037%.
In the case of `O=C1CC(SCCc2nc3ccccc3[nH]2)C(=O)N1c1cccc(F)c1` (stereo not drawn) [CBK266671], the “% of control remaining” value is recorded as 158.445%.
As for `COc1ccc(-c2[nH]c3ncccc3c2CN2CCSCC2)cc1` [CBK285338], the “% of control remaining” value came out at 122.927%.
With `Cc1cccc(-c2ncc(C(=O)Nc3nccs3)cc2-c2ccco2)c1` [CBK037427] the figure was 134.484%; with `COC(=O)c1ccccc1Oc1nc(OC)cc(OC)n1` [CBK092217], 107.862%; with `CC(=O)Nc1ccc(S(=O)(=O)N2CCN(c3ccc(C(F)(F)F)cc3[N+](=O)[O-])CC2)cc1` [CBK264293], 114.548%.
As to `Cc1ccc(NC(=O)C(=O)NCCCN2CCOCC2)cc1C` [CBK264836], the “% of control remaining” value was found to be 112.031%.
The value for `CC(=O)Nc1cccc(NC(=O)N2CCCCC2CO)c1` (stereo not drawn) [CBK156181] was 112.057%; that for `COc1cc(OC)nc(C(NC(=O)C2CCN(C(=O)c3ccno3)CC2)c2ccc(Cl)cc2)n1` (stereo not drawn) [CBK060169] was 98.3441%.
Regarding `Cc1cc(OCC(=O)N2CCC(C(=O)Nc3ccccc3)CC2)no1` [CBK305067], the “% of control remaining” value is given as 174.454%.
On to `c1nc(Nc2ccc3[nH]ccc3c2)cc(-c2ccc(N3CCOCC3)cc2)n1` [CBK090851], for which the “% of control remaining” value was found to be 111.747%.
Regarding `O=C(Nc1cccc(N2CCNCC2)c1)c1ccccc1` [CBK028255T], the “% of control remaining” value came to 139.713%.
With `CCCCNC(=O)Nc1ncc(-c2ccc(C#N)cc2)nc1-c1ccc(C(=O)N2CCOCC2)cc1` [CBK105766] the figure was 83.3024%.
Consider `CCc1noc(C)c1C(=O)N1CCN(C(C#N)C2CCCCC2)CC1` (stereo not drawn) [CBK304916], for which the “% of control remaining” value came out at 142.696%.
Take `O=C(O)CCCC(=O)Nc1ccccc1-c1ccccc1` [CBK231405]: the “% of control remaining” value was 136.464%.
`Clc1nccnc1NCCOc1ccccc1` [CBK113564]: the “% of control remaining” value was 101.379%.
Turning to `O=C(NCCN1CCOCC1)c1cc(-c2ccc(F)cc2)nc2ccc(Br)cc12` [CBK294450], the “% of control remaining” value is 141.983%.
`O=C(Cc1cc(F)c(F)c(F)c1)Nc1cnccn1` [CBK161764]: the “% of control remaining” value was 115.441%.
The value for `O=C(Nc1ccc(C(=O)OCC(=O)c2cccc3ccccc23)cc1)c1ccccc1` [CBK265518] was 87.3027%; that for `O=[N+]([O-])c1cc(S(=O)(=O)Nc2ccc(C(O)(C(F)(F)F)C(F)(F)F)cc2)ccc1Cl` [CBK062106] was 109.969%.
Consider `O=C(Nc1nc2ccccc2s1)c1cccnc1Cl` [CBK071983], for which the “% of control remaining” value was found to be 95.6294%.
With `COc1ccc(Cl)c(NC(=O)NCCN2CCN(c3ccccc3)CC2)c1` [CBK268899], the “% of control remaining” value is 132.473%.
The value for `CC(C)c1nnc(CCC(=O)N2CCC(c3ccccc3)C2)o1` (stereo not drawn) [CBK281925] was 151.149%; that for `Cn1cc(CCC(=O)N2CCc3[nH]c4ccc(Cl)cc4c3C2)cn1` [CBK304636] was 153.57%.
The value for `O=C(O)c1sc2cc(C(F)(F)F)cnc2c1-c1cccs1` [CBK089890] was 58.4041%; that for `COc1ccc(CCN2CCN(c3nccnc3OCc3cc(C)on3)CC2)cc1OC` [CBK084207] was 86.2367%.
For `COc1cc(CN2CCc3c([nH]c4ccccc34)C2)c([N+](=O)[O-])cc1OC` [CBK261588], the “% of control remaining” value came to 100%.
Take `O=C(Nc1ccc2[nH]ccc2c1)c1c(F)ccc(Cl)c1F` [CBK159673]: the “% of control remaining” value was found to be 94.8885%.
The value for `Cc1cc(NS(=O)(=O)c2ccc(Cl)c(Cl)c2)n(C)n1` [CBK067254] was 134.737%; that for `OC1CCC(Nc2cncc(-c3cccc(Cl)c3)n2)CC1` (stereo not drawn) [CBK066031] was 119.696%.
With `O=C(O)CSc1cccc2cccnc12` [CBK126918] the figure was 178.927%; with `CCN(CC)C(=O)c1sc2nc(-c3cccs3)nc(C)c2c1N` [CBK115366], 84.9115%.
Consider `COc1ccc(-c2cncc(N3CCN(C)CC3)n2)cc1` [CBK065378], for which the “% of control remaining” value was found to be 137.434%.
Consider `CCOC(=O)C(CNC(=O)c1c(CC)noc1C)Cc1ccccc1` (stereo not drawn) [CBK305961], for which the “% of control remaining” value is listed as 124.532%.
As for `CS(=O)(=O)Nc1cccc(-c2nnn[nH]2)c1` [CBK062150], the “% of control remaining” value stood at 189.522%.
